# From PubChem BioAssay AID504648 (National Center for Advancing Translational Sciences (NCATS), 2011)
# Out of some 390,000 compounds screened, about 610 (0.16%) were called active. The inconclusive results got no clear call from the source; some entries with a clear call stand among them for comparison. Calls follow the shape of the dose curve; as a rule, active = well fitted inhibition curve with a large enough effect; inconclusive = small, poorly fitted or top-dose-only effect, or effect the other way, or another doubt; inactive = no such curve, though single readings can be large or run the other way. Potencies beside an inconclusive call are fits to weak or partial responses and may not hold up.
# Test: Nrf2 qHTS screen for inhibitors: counterscreen for cytotoxicity
# Settings: A549 ARE-Fluc cells, CellTiter-Fluor viability, 18-24 h; series mostly up to 46 µM
# Outline: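 A549 ARE_Fluc cells in 5% FBS OPTI-MEM were exposed to compounds in concentration-response for 18-24 h at 37 deg C. Viability was read by CellTiter-Fluor fluorescence (Ex 405/Em 525) after 30 min, before the luciferase read.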
# Potency is read from the fitted curve at half-maximal effect.
row,SMILES,Potency
1,Cc1cc(C)cc(OCC(=O)Nc2nc(-c3cccnc3)cs2)c1,"inconclusive: 16.4 µM [falling, partial curve, poor fit]"
2,C=CCSc1nc2ccccc2c2nc(-c3ccccc3)nn12,"inconclusive: 29.1 µM [activator, single point]"
3,Cc1ccc2nc(SC(C(=O)Nc3ccc(F)cc3)c3ccccc3)[nH]c2c1 (stereo unspecified),"inconclusive: 20.6 µM [falling, partial curve, poor fit]"
4,CCC(CC)C(=O)Nc1cccc(C(=O)Nc2ccc(S(=O)(=O)Nc3ccc(C)cc3)cc2)c1,"inconclusive: 29.1 µM [falling, single point]"
5,CC(C)Oc1ccc(C(=O)NC2(C(F)(F)F)N=C3SCCN3C2=O)cc1 (stereo unspecified),"inconclusive: 1.46 µM [activator, single point]"
6,O=C(Cc1ccc(Cl)cc1)NN1C(=O)c2ccccc2C1=O,inactive
7,COc1ccc(-c2csc(Nc3ccc(S(N)(=O)=O)cc3)n2)cc1,inactive
8,Cc1ccc(CNC(=O)c2ccc(CSCc3ccccc3Cl)o2)cc1,inactive
9,COc1ccccc1CNC(=O)CCC1N=C2c3ccccc3N=C(SCC(N)=O)N2C1=O (stereo unspecified),inactive
10,Cn1c(=O)c2c(nc(NCc3ccco3)n2C/C=C/c2ccccc2)n(C)c1=O,"inconclusive: 18.4 µM [falling, partial curve, poor fit]"
11,O=C(O)CN1C(=O)/C(=C/C=C/c2ccccc2)SC1=S,"inconclusive: 16.4 µM [falling, single point]"
12,COC(=O)Cc1c(C)c2cc3c(c(C)c2oc1=O)OCN(CCc1ccccc1F)C3,"inconclusive: 18.4 µM [activator, single point]"
13,CCC1=NN(C(=O)C(=O)Nc2ccc(OC)cc2)C(O)(C(F)(F)F)C1 (stereo unspecified),"inconclusive: 29.1 µM [falling, single point]"
14,O=C(Cc1ccccc1)n1nc(-c2ccco2)nc1SCc1ccccc1,inactive
15,COc1cc(SSc2cc(OC)cc([N+](=O)[O-])c2N)c(N)c([N+](=O)[O-])c1,inactive
16,Cc1ccc(/C=C2/Sc3ccc(C(=O)NCc4ccccn4)cc3NC2=O)cc1,"inconclusive: 29.1 µM [activator, partial curve, poor fit]"
17,CCOC(=O)c1cc2sccc2n1CC(=O)N1CCCc2ccccc21,"inconclusive: 18.4 µM [falling, single point]"
18,COc1ccc([N+](=O)[O-])cc1-c1[nH]c(-c2ccc(C(=O)O)cc2)nc1-c1ccccc1,"inconclusive: 25.9 µM [activator, partial curve, poor fit]"
19,COc1ccc(C2N(c3ccc(Cl)cc3)N=C(C(C)=O)N(C)N2C(C)=O)cc1 (stereo unspecified),"inconclusive: 32.6 µM [falling, partial curve, poor fit]"
20,Cc1ccccc1NC(=O)/C(C#N)=C\c1cn(CC(=O)O)c2ccccc12,"inconclusive: 18.4 µM [falling, partial curve]"
21,Cc1ccc(NC(=O)CSCc2n[nH]c(=O)[nH]2)c(Br)c1,"inconclusive: 18.4 µM [activator, single point]"

# Retrieved by structure from above, 2 records:
row,SMILES,Potency
18,COc1ccc([N+](=O)[O-])cc1-c1[nH]c(-c2ccc(C(=O)O)cc2)nc1-c1ccccc1,"inconclusive: 25.9 µM [activator, partial curve, poor fit]"
17,CCOC(=O)c1cc2sccc2n1CC(=O)N1CCCc2ccccc21,"inconclusive: 18.4 µM [falling, single point]"

# Next part.

row,SMILES,Potency
1,CCOC(=O)c1c(-c2cccs2)csc1N,inactive
2,COc1ccc(Cc2nnc(NC(=O)c3cccc([N+](=O)[O-])c3C)s2)cc1,"inconclusive: 11.6 µM [activator, partial curve, poor fit]"
3,CS(=O)(=O)c1oc(-c2ccc(F)cc2)nc1S(=O)(=O)c1ccc(Cl)cc1,"inconclusive: 25.9 µM [falling, single point]"
4,CN(C)c1cc(NC(=O)CN2CCCC2)c2ccccc2n1,"inconclusive: 23.1 µM [falling, partial curve, poor fit]"
5,COc1ccc(Cl)cc1NC(=O)CSC1=Nc2ccccc2C2=NC(CC(=O)NC3CCCCC3)C(=O)N12 (stereo unspecified),"inconclusive: 16.4 µM [falling, partial curve, poor fit]"
6,COc1ccc(C(C)(C)C)cc1NC(=O)Nc1ccc2c(c1)OCO2,"inconclusive: 29.1 µM [falling, single point]"
7,COc1ccc(NS(=O)(=O)c2cccc(NC(=O)c3ccc(S(=O)(=O)N4CCCCCC4)cc3)c2)cc1,"inconclusive: 23.1 µM [falling, single point]"
8,O=C(/C=C/c1ccccc1)NC(NC(=S)Nc1ccc(Cl)cc1Cl)C(Cl)(Cl)Cl (stereo unspecified),"inconclusive: 25.9 µM [falling, single point]"
9,O=C1CCCC(=O)N1c1ccc(NCCOCCO)c([N+](=O)[O-])c1,"inconclusive: 20.6 µM [falling, single point]"
10,COc1ccc(Cn2nnnc2CN(Cc2cc3ccc(C)cc3[nH]c2=O)C2CCCC2)cc1,"inconclusive: 16.4 µM [falling, partial curve]"
11,O=C(CCN1CCN(c2ccccc2)CC1)N/N=C/c1ccccc1OC(F)F,inactive
12,Cc1ccc(NC(=O)c2ccc3oc(=O)c(S(=O)(=O)c4ccccc4)cc3c2)cc1C,inactive
13,O=C(c1cc([N+](=O)[O-])ccc1N1CCOCC1)N1CCN(c2ccc([N+](=O)[O-])cc2)CC1,"inconclusive: 16.4 µM [falling, single point]"
14,C=CCNC(=O)CC1C(=O)NCCN1Cc1c(F)cccc1Cl (stereo unspecified),"inconclusive: 29.1 µM [falling, single point]"
15,Cc1nn(C)c(C(=O)Nc2ccc(S(=O)(=O)NC34CC5CC(CC(C5)C3)C4)cc2)c1Br,"inconclusive: 32.6 µM [falling, partial curve, poor fit]"
16,O=C(O)c1ccc(-n2nc(C(F)(F)F)c3c2-c2ccoc2CC3)cc1,"inconclusive: 29.1 µM [falling, single point]"
17,Cc1ccc(N=C2NC(=O)CS2)cc1C,inactive
18,O=c1c2cc(Br)ccc2nc(-c2cccc(C(F)(F)F)c2)n1O,inactive
19,COC(=O)c1ccccc1NC(=O)COc1ccccc1[N+](=O)[O-],inactive
20,CCOC(=O)c1sc(-c2ccccc2)cc1NC(=O)c1ccc(S(=O)(=O)N(CCOC)CCOC)cc1,"inconclusive: 2.91 µM [activator, partial curve, poor fit]"
